These results are taken from PubChem BioAssay AID493014 (National Center for Advancing Translational Sciences (NCATS), 2011).

The list shows a part of the results. Shown are side measurements of this screen, not its main read-out; they come without a call. The list favours compounds with an active or inconclusive main result. Words in brackets tell the shape of the fitted curve; partial curves, single points and poor fits give uncertain potencies.

The nature of this test: qHTS Assay to Find Inhibitors of Chronic Active B-Cell Receptor Signaling. The following applies: ABC-DLBCL IkBa-CBG/CBR reporter, luminescence ratio (green luciferase fused to IkBa over red control in TMD8 lymphoma cells), 4 h. A digest of the protocol: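 Compounds up to 46 uM were incubated four hours with TMD8 cells whose green CBG68 luciferase is fused to IkappaBalpha; red CBR luminescence normalised the signal, and concentration-effect curves were fitted to fusion, red and ratio data.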
In general terms: qHTS replaces the single test concentration by a dilution series.

[1] abbreviates: measured here: CBR red luminescence, cell number.

One may read the AC50 as the midpoint of the concentration-response curve, whichever way the signal moves. Regarding `CCCc1cc(C(=O)NC(C)C2CCCO2)cs1` (stereo not drawn), the AC50 under setting [1] was 12.6 µM [rising, partial curve, poor fit].

Consider `O=C(CCc1nc2ccccc2c(=O)[nH]1)N1CCCc2ccccc21`, for which the AC50 under setting [1] is 18.4 µM [falling, partial curve, poor fit]. Same read-out and setting: for `Cc1oc2c(c1C(=O)Nc1ccc(C(=O)O)cc1)CCCC2` the value was 0.058 µM [rising, full curve, poor fit]; for `CCOc1ccc(Br)cc1C(=O)N/N=C/c1ccc([N+](=O)[O-])cc1`, 12.6 µM [falling, partial curve]; for `Cc1ccccc1NC(=O)CC1SC(=O)N(c2ccccc2)C1=O` (stereo not drawn), 29.1 µM [falling, single point]. Still for that read-out and setting: for `Cc1cccc(OCc2nnc(SCC(=O)Nc3cc(C)on3)n2C)c1` the value was 25.9 µM [rising, partial curve, poor fit]; for `CCCCC(=O)Nc1ccccc1C(=O)OCC(=O)c1ccc2c(c1)OCCO2`, 0.82 µM [rising, full curve, poor fit]; for `O=C(NNc1ncnc2c1cnn2-c1ccccc1)c1cccs1`, 5.01 µM [falling, partial curve, poor fit]. On the same count and under the same terms, for `COc1ccc(Cl)cc1S(=O)(=O)N1CCCC(C(=O)N2CCOCC2)C1` (stereo not drawn) the value was 7.08 µM [falling, full curve]; for `CC(=O)n1c2c(c3ccccc31)OC(N)=C(C#N)C2c1cccc(Cl)c1Cl` (stereo not drawn), 5.17 µM [falling, full curve].

Take `Cc1cccn2cc(-c3cc4ccccc4oc3=O)nc12`: the AC50 under setting [1] is 28.2 µM [falling, single point]. With `NNC(=O)CN1C(CN2CCOCC2)=Nc2ccc(Br)cc2C1c1ccccc1` (stereo not drawn), the AC50 (measured here: IkBa-CBG green luminescence) was 35.5 µM [rising, partial curve, poor fit].

In the case of `CN(NS(=O)(=O)c1ccc(Cl)cc1)c1ncc(C(F)(F)F)cc1Cl`, under setting [1], the AC50 was 35.5 µM [rising, single point]. Same read-out and setting: for `CC(C)c1ccc(N=C2N=C(N)c3ccccc32)cc1` the value was 5.62 µM [rising, full curve]. Take `Cc1ccccc1NC(=O)c1c(O)c2cccc3c2n(c1=O)CC3`: the AC50 under setting [1] was 0.501 µM [falling, full curve]. For the compound `COc1ccc(OC)c(NC(=O)CC2C(=O)NCCN2C(=O)Nc2cccc(Cl)c2)c1` (stereo not drawn), the half-maximal activity concentration (AC50) under setting [1] was 0.00461 µM [rising, full curve, poor fit]. Take `COc1ccccc1N(C(C)=O)C1SC(=O)N(c2ccccc2)C1=O` (stereo not drawn): the AC50 under setting [1] was 4.47 µM [falling, partial curve, poor fit]. On the same count and under the same terms, for `Cc1ccc(N(C(=O)Cn2nnc3ccccc32)C(C(=O)NCc2ccccc2)c2ccccn2)cc1` (stereo not drawn) the value was 16.4 µM [falling, partial curve, poor fit].
